# Laboratory results reported in PubChem BioAssay AID1117319 (Southern Research Institute, 2015).
# The chains behind the UniProt entries cited, without tags or fusion partners. Where a name states a change or a piece, a line headed by the entry shows the natural chain unless it says otherwise.
# UniProt P69720: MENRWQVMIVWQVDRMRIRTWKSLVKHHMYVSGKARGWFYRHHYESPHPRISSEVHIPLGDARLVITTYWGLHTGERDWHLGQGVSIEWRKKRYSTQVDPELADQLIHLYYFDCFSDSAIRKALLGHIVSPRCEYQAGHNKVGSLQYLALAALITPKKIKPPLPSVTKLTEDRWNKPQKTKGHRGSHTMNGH
# UniProt P69721: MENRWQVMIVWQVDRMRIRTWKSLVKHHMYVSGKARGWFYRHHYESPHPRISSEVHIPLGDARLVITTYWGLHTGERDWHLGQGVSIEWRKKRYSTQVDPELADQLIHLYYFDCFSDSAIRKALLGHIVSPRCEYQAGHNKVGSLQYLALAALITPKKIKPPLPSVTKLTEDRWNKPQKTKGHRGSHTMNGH
# UniProt P69722: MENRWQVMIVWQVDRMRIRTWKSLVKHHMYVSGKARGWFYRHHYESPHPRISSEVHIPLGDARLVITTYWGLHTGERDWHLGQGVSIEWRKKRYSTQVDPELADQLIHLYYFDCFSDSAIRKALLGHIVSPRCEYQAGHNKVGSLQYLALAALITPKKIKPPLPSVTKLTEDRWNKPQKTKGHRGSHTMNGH
# UniProt P69723: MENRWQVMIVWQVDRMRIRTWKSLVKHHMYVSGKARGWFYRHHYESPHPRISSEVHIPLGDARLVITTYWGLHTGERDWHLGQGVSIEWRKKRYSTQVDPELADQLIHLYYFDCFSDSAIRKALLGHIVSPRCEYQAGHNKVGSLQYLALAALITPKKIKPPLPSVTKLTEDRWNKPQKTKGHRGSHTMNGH
# UniProt Q9HC16: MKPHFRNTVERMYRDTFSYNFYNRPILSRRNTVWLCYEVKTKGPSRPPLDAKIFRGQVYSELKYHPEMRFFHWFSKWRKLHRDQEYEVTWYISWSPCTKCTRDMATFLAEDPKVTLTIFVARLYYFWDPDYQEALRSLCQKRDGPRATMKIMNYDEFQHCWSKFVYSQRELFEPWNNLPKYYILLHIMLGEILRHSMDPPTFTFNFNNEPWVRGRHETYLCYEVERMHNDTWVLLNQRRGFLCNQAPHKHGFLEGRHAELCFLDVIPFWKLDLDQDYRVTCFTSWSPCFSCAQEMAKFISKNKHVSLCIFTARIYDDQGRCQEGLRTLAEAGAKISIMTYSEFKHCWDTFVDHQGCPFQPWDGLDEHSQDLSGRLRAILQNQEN
# Among all 260,000 compounds or so, about 1,500 (0.58%) were called active. The shares of active, inactive and inconclusive entries below differ from those in the screen.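 Rule for the calls: active = inhibition above a set limit at one or more doses, reproduced on every date tested; inconclusive = results disagree between test dates, or hit never tested in dose response; inactive = the rest.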
# Biological target: Virion infectivity factor (Human immunodeficiency virus type 1 group M subtype B (isolate BH10)) + Virion infectivity factor (Human immunodeficiency virus type 1 group M subtype B (isolate BRU/LAI)) + Virion infectivity factor (Human immunodeficiency virus type 1 group M subtype B (isolate PCV12)) + Virion infectivity factor (Human immunodeficiency virus type 1 group M subtype B (isolate HXB2)) + DNA dC->dU-editing enzyme APOBEC-3G (Homo sapiens) (UniProt P69720+P69721+P69722+P69723+Q9HC16)
# Test: inhibitors of Vif binding to APOBEC3G peptide, primary screen, biochemical, TR-FRET, GST-Vif 1-94, biotin-A3G peptide, dose response retest (AID 1117319);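 note: Vif residues 1-94 fused to GST binding biotinylated APOBEC3G peptide 110-148; 0% = full assay without inhibitor and 100% = GST in place of GST-Vif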
# Conditions: hits give high values
row,SMILES,inhibition
1,CO[C@@]1(NC(=O)Cc2cccs2)C(=O)N2C(C(=O)O)=C(COC(N)=O)CS[C@@H]21,inconclusive: 34.4%
2,CS(=O)(=O)N(CC(=O)NCc1ccc2c(c1)OCO2)C1CCCCC1,inactive: -13.6%
3,Cn1c(NC(=O)/C=C/c2ccco2)cc(=O)n(C)c1=O,inconclusive: 65%
4,CCCNC(=O)c1c(N)n(-c2ccc(S(N)(=O)=O)cc2)c2nc3ccccc3nc12,inconclusive: 34.7%
5,CC(C)(C)c1nc2scc(-c3ccc(Cl)cc3)c2c(=O)o1,inconclusive: 44.2%
6,COC(=O)Cc1cc(=O)oc2c(C)c(O)ccc12,inconclusive: 37.9%
7,O.O.O.O=S(=O)([O-])OC[C@H]1O[C@@H](O[C@]2(COS(=O)(=O)[O-])O[C@H](OS(=O)(=O)[O-])[C@@H](OS(=O)(=O)[O-])[C@@H]2OS(=O)(=O)[O-])[C@H](OS(=O)(=O)[O-])[C@@H](OS(=O)(=O)[O-])[C@@H]1OS(=O)(=O)[O-].[Al],inconclusive: 49.5%
8,C/C(=N\Nc1nc2c(s1)CCCC2)c1ccc(Cl)cc1,inconclusive: 40.5%
9,CCCCOC(=O)c1cc(C)nc2ccc(Br)cc12,inactive: 10.8%
10,Cc1noc(C)c1-c1nc(CSc2ccc(Cl)cc2)no1,inconclusive: 46.8%
11,Cc1ccc(Oc2c(C=O)c3ccccc3n2C)cc1,inconclusive: 18%
12,Cc1ccc(-c2nn(-c3cc(Cl)ccc3[N+](=O)[O-])c(=O)c3ccccc23)cc1C,inconclusive: 31.5%
13,CC(=O)OC1=C(C#N)Cn2ccc3cccc1c32,inconclusive: 44.8%
14,COc1cccc(CN(Cc2ccco2)C(c2ccc(F)cc2)c2nnnn2C(C)(C)C)c1 (stereo not drawn),inconclusive: 36.6%
15,O=C(Nc1n[nH]c(C(F)(F)F)n1)c1cccs1,inconclusive: 40.4%
16,O=C(c1cnn2c(C(F)F)cc(-c3ccccc3)nc12)N1CCOCC1,inconclusive: 35.3%
17,COCCCNc1ncnc2c1cnn2-c1ccc(C)cc1C,inconclusive: 46.3%
18,Brc1ccc2[nH]c3c(N4CCc5ccccc5C4)ncnc3c2c1,inconclusive: 51.8%
19,CSc1nc(C)nc2c1c(=O)n(C)c(=O)n2C,inconclusive: 33.4%
20,OCCN1CCN(CC#CCn2c3ccccc3c3ccccc32)CC1,inconclusive: 62%
21,Cc1cc(Cl)ccc1OC(C)C(=O)Nc1ccc([N+](=O)[O-])cn1 (stereo not drawn),inconclusive: 36.1%
22,Cc1ccc(S(=O)(=O)NCCCn2ccnc2)cc1,inconclusive: 41.6%
23,CSC1=N/C(=C\C=C\c2cccs2)C(=O)S1,inconclusive: 42.9%

# An excerpt of these results, tab-delimited.
row	SMILES	inhibition
12	Cc1ccc(-c2nn(-c3cc(Cl)ccc3[N+](=O)[O-])c(=O)c3ccccc23)cc1C	inconclusive: 31.5%
15	O=C(Nc1n[nH]c(C(F)(F)F)n1)c1cccs1	inconclusive: 40.4%
